Results reported in PMC7325376.
These are yes or no findings as the source states them, for the method shown. In cells and extracts the contact can be indirect.

Amino acid sequences for entries named in this document (tags omitted).
UniProt Q9BUT1: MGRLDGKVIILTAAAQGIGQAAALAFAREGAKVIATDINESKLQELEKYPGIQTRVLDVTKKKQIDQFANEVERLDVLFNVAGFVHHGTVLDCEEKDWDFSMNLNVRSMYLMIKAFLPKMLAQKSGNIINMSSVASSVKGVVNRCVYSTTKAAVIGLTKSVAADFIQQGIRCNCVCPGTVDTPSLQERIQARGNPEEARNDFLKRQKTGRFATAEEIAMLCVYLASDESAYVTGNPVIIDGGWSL
UniProt Q14145: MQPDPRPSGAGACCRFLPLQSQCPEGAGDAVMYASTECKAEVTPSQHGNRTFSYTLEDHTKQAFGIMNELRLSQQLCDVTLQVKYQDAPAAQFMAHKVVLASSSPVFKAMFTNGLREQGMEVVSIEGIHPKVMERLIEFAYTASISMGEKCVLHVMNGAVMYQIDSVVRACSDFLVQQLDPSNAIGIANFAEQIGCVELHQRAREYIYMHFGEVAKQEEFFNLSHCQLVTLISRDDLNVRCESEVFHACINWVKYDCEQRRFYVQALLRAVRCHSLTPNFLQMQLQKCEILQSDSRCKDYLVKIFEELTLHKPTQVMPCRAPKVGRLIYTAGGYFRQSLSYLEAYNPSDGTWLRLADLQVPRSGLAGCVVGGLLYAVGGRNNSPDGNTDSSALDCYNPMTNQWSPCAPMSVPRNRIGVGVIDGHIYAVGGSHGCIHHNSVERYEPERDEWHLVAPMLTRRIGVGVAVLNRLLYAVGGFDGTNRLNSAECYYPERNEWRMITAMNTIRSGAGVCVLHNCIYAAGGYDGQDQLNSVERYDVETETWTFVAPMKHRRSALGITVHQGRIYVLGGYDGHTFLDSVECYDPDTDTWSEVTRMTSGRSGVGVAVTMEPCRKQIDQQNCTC
UniProt Q16236: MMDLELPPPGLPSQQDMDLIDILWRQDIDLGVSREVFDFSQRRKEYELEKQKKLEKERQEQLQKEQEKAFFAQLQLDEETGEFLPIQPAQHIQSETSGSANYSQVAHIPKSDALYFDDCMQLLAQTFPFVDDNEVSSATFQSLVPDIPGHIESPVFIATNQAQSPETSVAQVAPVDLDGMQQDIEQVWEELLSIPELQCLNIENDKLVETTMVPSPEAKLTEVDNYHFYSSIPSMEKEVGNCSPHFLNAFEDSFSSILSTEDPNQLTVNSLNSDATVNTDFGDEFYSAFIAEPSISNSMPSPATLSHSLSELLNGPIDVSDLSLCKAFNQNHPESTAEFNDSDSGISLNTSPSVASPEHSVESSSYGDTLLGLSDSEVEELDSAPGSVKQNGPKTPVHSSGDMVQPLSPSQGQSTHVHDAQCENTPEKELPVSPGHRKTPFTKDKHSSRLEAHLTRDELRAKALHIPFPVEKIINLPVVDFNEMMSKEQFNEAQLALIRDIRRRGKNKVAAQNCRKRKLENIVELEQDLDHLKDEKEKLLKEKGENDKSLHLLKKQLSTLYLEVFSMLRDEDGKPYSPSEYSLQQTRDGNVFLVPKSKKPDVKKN

Target: FLAG-tagged BDH2 (3-Hydroxy butyrate dehydrogenase 2) (human) (UniProt Q9BUT1)
Test: co-IP; HEK293T cells overexpressing Flag-BDH2, HA-Keap1 and Myc-Nrf2; total lysate, immunoprecipitation with anti-Flag antibody at 4 °C overnight, protein A + G agarose, blots with anti-HA and anti-Myc

| binding | Substance |
| --- | --- |
| no binding | HA-tagged Keap1 (Kelch-like ECH-associated protein 1) (from UniProt Q14145 1-624) |
| no binding | MYC-tagged Nrf2 (Nuclear factor erythroid 2-related factor 2) (from UniProt Q16236 1-605) |
